Data reported in paper doi:10.1101/306316.
Results are given in words; binding and its absence hold for the method and conditions named. In cells and extracts the contact can be indirect. Some entries that bind do so weakly or less than the wild type.

Target: T1, PMPCB, the beta subunit of the MPP (MPPβ) (human (endogenous in fibroblasts)) (UniProt O75439)
T1 sequence: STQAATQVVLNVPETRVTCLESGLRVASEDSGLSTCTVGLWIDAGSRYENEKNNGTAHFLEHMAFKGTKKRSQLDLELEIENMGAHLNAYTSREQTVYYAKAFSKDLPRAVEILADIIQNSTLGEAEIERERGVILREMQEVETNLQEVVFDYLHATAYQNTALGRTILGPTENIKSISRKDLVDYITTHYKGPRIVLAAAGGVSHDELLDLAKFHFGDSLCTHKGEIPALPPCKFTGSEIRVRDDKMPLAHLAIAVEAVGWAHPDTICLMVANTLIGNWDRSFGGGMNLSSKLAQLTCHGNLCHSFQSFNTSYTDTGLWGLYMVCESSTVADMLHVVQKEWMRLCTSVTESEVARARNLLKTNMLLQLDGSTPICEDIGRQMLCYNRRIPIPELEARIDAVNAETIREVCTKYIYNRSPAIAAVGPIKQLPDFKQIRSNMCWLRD
Assay: co-IP

B1: LONP1 (enzyme, UniProt P36776 68-959)
chain: FWEASSRGGGAFSGGEDASEGGAEEGAGGAGGSAGAGEGPVITALTPMTIPDVFPHLPLIAITRNPVFPRFIKIIEVKNKKLVELLRRKVRLAQPYVGVFLKRDDSNESDVVESLDEIYHTGTFAQIHEMQDLGDKLRMIVMGHRRVHISRQLEVEPEEPEAENKHKPRRKSKRGKKEAEDELSARHPAELAMEPTPELPAEVLMVEVENVVHEDFQVTEEVKALTAEIVKTIRDIIALNPLYRESVLQMMQAGQRVVDNPIYLSDMGAALTGAESHELQDVLEETNIPKRLYKALSLLKKEFELSKLQQRLGREVEEKIKQTHRKYLLQEQLKIIKKELGLEKDDKDAIEEKFRERLKELVVPKHVMDVVDEELSKLGLLDNHSSEFNVTRNYLDWLTSIPWGKYSNENLDLARAQAVLEEDHYGMEDVKKRILEFIAVSQLRGSTQGKILCFYGPPGVGKTSIARSIARALNREYFRFSVGGMTDVAEIKGHRRTYVGAMPGKIIQCLKKTKTENPLILIDEVDKIGRGYQGDPSSALLELLDPEQNANFLDHYLDVPVDLSKVLFICTANVTDTIPEPLRDRMEMINVSGYVAQEKLAIAERYLVPQARALCGLDESKAKLSSDVLTLLIKQYCRESGVRNLQKQVEKVLRKSAYKIVSGEAESVEVTPENLQDFVGKPVFTVERMYDVTPPGVVMGLAWTAMGGSTLFVETSLRRPQDKDAKGDKDGSLEVTGQLGEVMKESARIAYTFARAFLMQHAPANDYLVTSHIHLHVPEGATPKDGPSAGCTIVTALLSLAMGRPVRQNLAMTGEVSLTGKILPVGGIKEKTIAAKRAGVTCIVLPAENKKDFYDLAAFITEGLEVHFVEHYREIFDIAFPDEQAEALAVER
For B1, the binding was “binds”.
